The text below walks through data of PubChem BioAssay AID274 (DTP/NCI, 2004).

The test has as its system BDF1 mice, Lewis lung carcinoma iv, survival T/C. Description: NCI In Vivo Anticancer Drug Screen. Data for tumor model Lewis Lung Carcinoma (intravenous) in B6D2F1 (BDF1) mice. Particulars: T/C endpoint: median survival time, schedule: Q01DX009 (ip), higher T/C = longer survival. On the procedure:
The antitumor activity of compounds was measured in mice bearing transplantable tumors. Survival or tumor size were measured and the results are expressed as the measurement made in the treated group (T) divided by the measurement made in the vehicle treated control group (C). The tumor model used in this assay is Lewis Lung Carcinoma (intravenous) in B6D2F1 (BDF1) mice

Where [1] appears, read: dose: 25.0 mg/kg/injection, vehicle: saline with Tween-80.
The mark [2] stands for this setting: dose: 50.0 mg/kg/injection, vehicle: saline with Tween-80.
Where [3] appears, read: dose: 100.0 mg/kg/injection, vehicle: saline with Tween-80.
The mark [4] stands for this setting: dose: 200.0 mg/kg/injection, vehicle: saline with Tween-80.
The mark [5] stands for this setting: dose: 400.0 mg/kg/injection, vehicle: saline with Tween-80.

The list is a part of this screen's results and no random one: its compounds were picked by chemical class. Other doses and runs of a compound may be missing. T/C: endpoint of the treated group in % of that of the vehicle group. Some entries give survivors of the animals treated and no T/C: the source holds a T/C of zero for them, seemingly a mark for toxic or unscored doses. Some doses without a T/C left all or most animals alive at the check, yet need not have been tolerated: the source hardly ever lists a survival T/C far under the control, and the zero likely stands for such cases as well. Counts of survivors are from the toxicity check (mostly the fifth day) where no day follows; animals may have died later. Schedules are NCI's codes, read here as Q, the interval in days (D) or hours (H), X, the number of doses. Some metal complexes and salts are drawn in pieces, as in the source, so charges may not balance. Some entries hold several experiments; the values are given in rising order. Where survival is the endpoint, this PubChem deposit counts one and a half times the control or more as active, and values a quarter to a half above the control carry no call in these data; other NCI protocols may use other cut-offs. Some T/C values are followed by the survivors on the day toxicity was checked, most often the fifth; where neither a count nor a note follows, no animal had died by that day.

`NC(=O)c1[nH]cnc1/N=N\N(CCCl)CCCl`: the T/C by setting is: (dose: 12.5 mg/kg/injection, vehicle: saline with Tween-80) 130 % of control; under setting [1], 146 % of control; under setting [2], 256 % of control; under setting [3], 89 % of control. Besides, the survivor count is on record as 10 of 10 under setting [4] and 9 of 10 under setting [5].
As for `[Au].[C-]#N.[C-]#N`, the T/C runs as follows: (dose: 0.62 mg/kg/injection, vehicle: saline) 96 % of control; (dose: 1.25 mg/kg/injection, vehicle: saline) 98 and 101 % of control; (dose: 2.5 mg/kg/injection, vehicle: saline) 98 and 104 % of control; (dose: 5.0 mg/kg/injection, vehicle: saline) 97 and 111 % of control; (dose: 10.0 mg/kg/injection, vehicle: saline) 103 and 110 % of control. Moreover, the survivor count (dose: 20.0 mg/kg/injection, vehicle: saline) was 0 of 10 and 4 of 10.
On to `CC1(C)CN1P(=O)(Nc1ncccn1)N1CC1(C)C` (centres undefined), for which the T/C is, setting by setting: (dose: 12.5 mg/kg/injection, vehicle: saline) 109 % of control; (dose: 25.0 mg/kg/injection, vehicle: saline) 100 % of control; (dose: 50.0 mg/kg/injection, vehicle: saline) 100 % of control; (dose: 100.0 mg/kg/injection, vehicle: saline) 90 % of control; (dose: 200.0 mg/kg/injection, vehicle: saline) 100 % of control; (dose: 400.0 mg/kg/injection, vehicle: saline) 97 % of control.
Regarding `ClC1CSC1`, the T/C was 97 % of control under setting [1], 95 % of control under setting [2] and 106 % of control under setting [3]. For the same compound, the survivor count reads like this: under setting [4], 3 of 10; under setting [5], 0 of 10.
For `CC(=O)OC(SC(OC(C)=O)C(Cl)(Cl)Cl)C(Cl)(Cl)Cl` (centres undefined), the T/C (dose: 12.5 mg/kg/injection, vehicle: Klucel (hydroxypropylcellulose) (HPC)) is 98 % of control; the T/C (dose: 25.0 mg/kg/injection, vehicle: Klucel (hydroxypropylcellulose) (HPC)) was 96 % of control; the T/C (dose: 50.0 mg/kg/injection, vehicle: Klucel (hydroxypropylcellulose) (HPC)) was 112 % of control; the T/C (dose: 100.0 mg/kg/injection, vehicle: Klucel (hydroxypropylcellulose) (HPC)) was 106 % of control [9 of 10 alive]. Moreover, the survivor count runs as follows: (dose: 200.0 mg/kg/injection, vehicle: Klucel (hydroxypropylcellulose) (HPC)) 3 of 10; (dose: 400.0 mg/kg/injection, vehicle: Klucel (hydroxypropylcellulose) (HPC)) 5 of 10.
